Values quoted from earlier work, collected in patent US5166155A, “Quinoxaline-2,3-dione compounds and their preparation and use” (Novo Nordisk A/S, priority 1990, dated 1992).
At least one compound was matched to its structure with a doubt left. Some entries repeat one wording, which the source may state once for all of them.

System: NMDA receptor/ionophor complex, allosteric modulatory (glycine) site
Conditions: literature; cited from earlier work

Row | SMILES | agonist/antagonist activity at the glycine site
1 | NC1(C(=O)O)CCC1 [1-amino-cyclobutanecarboxylate] | weak antagonists
2 | NC1(C(=O)O)CCCC1 [1-amino-cyclopentanecarboxylate] | weak antagonists
3 | O=C(O)c1cc2cc(Cl)ccc2[nH]1 [5-chloro-indole-2-carboxylate] | weak antagonists
4 | O=C(O)c1nc2cc(Cl)c(Cl)cc2nc1O [6,7-dichloro-3-hydroxy-quinoxalin-2-carboxylate] | quite strong, but non-selective antagonists of glycine at the glycine site
